Laboratory results published in US20100305034A1.
No constants are given. Whether binding was seen depends on the method and setting. Some binding calls cover weakened binding; strength is not graded here.

Biological target: T1, VEGF165 (recombinant, produced by transfected HEK293 cells) (human), P15692
T1 chain: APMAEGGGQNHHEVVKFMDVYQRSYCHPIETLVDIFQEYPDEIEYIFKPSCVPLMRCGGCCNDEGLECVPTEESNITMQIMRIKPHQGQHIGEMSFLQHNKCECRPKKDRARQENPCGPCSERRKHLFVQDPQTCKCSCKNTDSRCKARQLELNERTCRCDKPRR
Test: Western blot of conditioned media from transfected HEK293 cells
Details: remark: other sources report otherwise

binding: binds
B1: VEGF165 (recombinant, produced by transfected HEK293 cells), P15692 207-395 (ligand)
chain: APMAEGGGQNHHEVVKFMDVYQRSYCHPIETLVDIFQEYPDEIEYIFKPSCVPLMRCGGCCNDEGLECVPTEESNITMQIMRIKPHQGQHIGEMSFLQHNKCECRPKKDRARQENPCGPCSERRKHLFVQDPQTCKCSCKNTDSRCKARQLELNERTCRCDKPRR
